Results are given in words; binding and its absence hold for the method and conditions named. Binding seen in cells or lysates may run through a third protein. A yes stands for co-enrichment or nearness to the bait. Other partners may have been found.
Target: T1, Peroxiredoxin 1 (human (endogenous in DOK cells and in human OLK tissue)) (UniProt Q06830)
T1 sequence: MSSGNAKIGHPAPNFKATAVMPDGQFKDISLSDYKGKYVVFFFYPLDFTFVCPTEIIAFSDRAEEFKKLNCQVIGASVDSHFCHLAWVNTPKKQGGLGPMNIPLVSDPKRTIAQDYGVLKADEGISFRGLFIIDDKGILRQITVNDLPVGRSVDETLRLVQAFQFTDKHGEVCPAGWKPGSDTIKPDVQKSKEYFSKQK
Experiment: affinity purification with mass spectrometry; total protein of human DOK cells (nicotine treatment group, 1 uM nicotine for 7 days, and control group) incubated with anti-Prx1 antibody (Co-IP); peptides analysed by LC-MS/MS; proteins with unique peptide counts >=1 accepted

Chains of the proteins cited; added tags and fusions are not shown.
UniProt P23528: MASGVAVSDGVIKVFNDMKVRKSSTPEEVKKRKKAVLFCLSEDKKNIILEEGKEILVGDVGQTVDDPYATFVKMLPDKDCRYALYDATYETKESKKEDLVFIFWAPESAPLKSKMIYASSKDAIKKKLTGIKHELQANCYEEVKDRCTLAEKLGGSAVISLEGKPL
UniProt P30153: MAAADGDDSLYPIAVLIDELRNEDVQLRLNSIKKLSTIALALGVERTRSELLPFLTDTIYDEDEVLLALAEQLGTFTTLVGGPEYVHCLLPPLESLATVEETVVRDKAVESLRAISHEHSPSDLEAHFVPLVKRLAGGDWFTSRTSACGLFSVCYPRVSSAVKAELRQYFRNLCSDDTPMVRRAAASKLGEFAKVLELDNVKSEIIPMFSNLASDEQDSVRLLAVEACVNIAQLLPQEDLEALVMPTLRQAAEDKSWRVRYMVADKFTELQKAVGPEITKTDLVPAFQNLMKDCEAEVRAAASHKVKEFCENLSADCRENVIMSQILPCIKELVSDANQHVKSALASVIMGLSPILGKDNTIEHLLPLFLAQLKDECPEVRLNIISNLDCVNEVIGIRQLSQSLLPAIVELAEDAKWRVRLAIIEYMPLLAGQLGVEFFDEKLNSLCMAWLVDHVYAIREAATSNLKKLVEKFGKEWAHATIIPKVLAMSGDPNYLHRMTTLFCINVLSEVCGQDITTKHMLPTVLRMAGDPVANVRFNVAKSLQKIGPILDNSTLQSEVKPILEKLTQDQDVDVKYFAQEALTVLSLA

Row | binding | Substance
1 | binds | Cofilin-1 (from UniProt P23528 1-166)
2 | binds | Serine/threonine-protein phosphatase 2A 65 kDa regulatory subunit A alpha isoform (from UniProt P30153 1-589)
